Measured values as given in paper PMC4833825.
These are yes or no findings as the source states them, for the method shown. For some assays here: In cells and extracts the contact can be indirect. Some binding calls cover weakened binding; strength is not graded here. Tags and fused reporters may be left off the sequences shown.

T1: β subunit of S. pombe eIF2B, tags cleaved (S. pombe) (UniProt Q9UT76)
T1 sequence: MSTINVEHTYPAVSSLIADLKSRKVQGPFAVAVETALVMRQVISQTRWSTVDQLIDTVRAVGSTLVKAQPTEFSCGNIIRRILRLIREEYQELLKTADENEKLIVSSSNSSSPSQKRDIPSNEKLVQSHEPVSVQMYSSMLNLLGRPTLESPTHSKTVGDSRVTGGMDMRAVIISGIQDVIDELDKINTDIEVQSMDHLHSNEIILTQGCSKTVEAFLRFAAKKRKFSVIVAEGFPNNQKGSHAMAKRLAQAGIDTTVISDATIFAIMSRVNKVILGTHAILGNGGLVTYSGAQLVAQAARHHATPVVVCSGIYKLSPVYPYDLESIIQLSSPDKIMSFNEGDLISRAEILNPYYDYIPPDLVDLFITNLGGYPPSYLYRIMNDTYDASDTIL

T2: MBP-His6-fused β subunit of S. pombe eIF2B (S. pombe) (UniProt Q9UT76)
T2 sequence: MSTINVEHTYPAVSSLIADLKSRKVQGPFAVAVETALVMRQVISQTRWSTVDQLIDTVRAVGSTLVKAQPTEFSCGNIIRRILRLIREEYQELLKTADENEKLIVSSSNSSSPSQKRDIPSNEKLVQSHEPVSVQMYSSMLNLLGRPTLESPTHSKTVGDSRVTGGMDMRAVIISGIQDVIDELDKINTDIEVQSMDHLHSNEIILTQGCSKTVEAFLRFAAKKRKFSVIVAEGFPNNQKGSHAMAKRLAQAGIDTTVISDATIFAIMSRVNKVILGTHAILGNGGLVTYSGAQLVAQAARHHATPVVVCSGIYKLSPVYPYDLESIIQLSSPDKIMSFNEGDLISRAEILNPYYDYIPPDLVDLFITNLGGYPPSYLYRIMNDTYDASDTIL

B1: α subunit of S. pombe eIF2B, tag cleaved (protein, UniProt Q9USP0 1-341)
chain: MVESDSSGIVRHSQGEFDIVQVYKKFLQDDPEITMPVAAIEALVQLLSRSQAKTISEFMDILQNGSNTLKEGVQNNISLSAGCDIFQRFVTRSLHDVGDFEQCKRHLVENGKLFIQRARACRQRIAHLGYPLIRDGSVILTHGFSRGVAAVLLAAAKRHVRFKVFVTESRPSGSGCLMTRTLKNACIPTCMVLDSAVSFTMNRVDLVLVGAEGVVENGGLINQIGTFQLAVFAKHAHKPFYAVAESHKFVRMFPLSQYDIPFSRPILEFDDPSPETVHPEPEPIPTPSDAIHNELIMNEEQIRNNPTLDVTPPEFVSGLITDLGIIDSKSGVSEELIKLYL
B2: δ subunit of S. pombe eIF2B (protein, UniProt Q09924 1-467)
chain: MGFSAEQAKKDGKDQSPVSESSSVGGTSPATASSVVSPNEPKLSGKEAKALKKARKQASRRAKAEAAAANNPPGVSEEKKVAIPNKNSNQQKKASKQNPQNSPETDANLQEKKIFEEKQVSIFSHLDWRRRRTTENIPKDIHPAVIRLGLKLANYKIFGSNQRCIDLLKTFKIVIQDYQTPYGTTLSRHLTTHINSQIAYLVSTRPLSISMGNAIRFLKLEISVLDIDLTDDEGKELLLEKIDSYIRDRIIIAGQVIVQAATEKIQDGDVILTYLHSSTVNDVLIHAKNVGKKFRVVVVDSRPEFEGRVCLKLLTEHGIECTYVMISALSYIMQEVTKIFLGGHAMLSNGALYSRAGTSLISLLGHESNVPVIACCESYKFTERIQLDSLVYNELAPGDQLVNMGVDDFEEKPGVLANWKSVKNLKLLSLKYDVTPPRLITVCVCEMGLLPSTSVPAIINEFKQVYA
B3: non-tagged γ subunit of S. pombe eIF2B (protein, UniProt P56288 1-458)
chain: MSLYEHAALPLASSPSILGPISGGRNRGNIQLQSIPIEFQAVVFAGFGNSLYPLTGSDALPKALLPIGNKPMLHYPLYWLEAAGFTSAILICMEEAEAHINAWLRSGYEGHMRIHVEAPTILDDSKSSADALRAVSHLIKNDFVCLSCDSIVGLPPIYGLDKFRLDNPSALAVYSPVLKYEHITSQSKEIDAKQLIGIEEKTSRLLYAKSSADVGSDFTFRMSLLWKHPRVTLNTNLSDAHIFVFKHWVIDLIREKESISSIRGDLIPYLVKCQYQKSFTVRENIQRFLSSPNNIDNYDGGLSSQEIKINALIAKDGIICSRANNLPNYFELNKCIAKLTPEQRLVDVTVSERALVGADCMVNEGTTIKDNSNIKKSIIGKNCVIGKGVVVSNSILMDNIVVEDGVRLESCIVASGAQIGAKSKLRECEIGVDHRVEAGRIARGERLVDMEKIETDMD
B4: ε subunit of S. pombe eIF2B, tag cleaved (protein, UniProt P56287 1-678)
chain: MPPSKGLNGKLEKPKHALQAIVLSDSYNYRFRPLTLDKPRCLLPLANTPLIEYTFEFLALAGVQEVYVFCCAHAGQIREYIEKSKWNLPSSPFSVNTIVSRESLSVGDALRELDSKQLITSDFILVSGDVVSNVPLNEVLKEHRKRREDDKNAIMTMVVREASPFHRTRARTESSVFVIDKKTSQCVHYQANERGKHYVSMDPEIFNEHEELEVRNDLIDCQIDICSNDVPALFTENFDYQDIRKDFVYGVLTSDLLGKKIHCHVAKENYAARVRSLQTYDAISKDVLSRWVYPFVPDSNLLNQTFSYQRHQIYKEEDVVLARSCIIKARTLIGAYTKVGDASVVANTIIGRNCTIGSNCSIDSAFLWEDVVIGDNCRIGKAILANSVKIGNNCSIEDGAIVAAGVVIGDNTIIEKNKRLTTFESHSQGTLNDPSLVGIGGRGQEYHAEEDSDDEGEFMEASGLIESTNELHLSDSESSETSSSSEEDMEFIPFSARRDSANTINSEDFDEGDFNKEAQQSLERAFEENHQIDIAALELNTLRMAMNANYHEVRSAIVLALLRRIMHLDVSPKEALAKVMTRWGPLLAKLTFSHEEQVDNVLTLQKYCVRLSMTRHFLQLLGYFYQLEIAEENAIQEWYSDPRSSEGELAALRDAGGKQFVDWLNTAESESESEEGSE
B5: His6-fused α subunit of S. pombe eIF2B (protein, UniProt Q9USP0 1-341)
chain: MVESDSSGIVRHSQGEFDIVQVYKKFLQDDPEITMPVAAIEALVQLLSRSQAKTISEFMDILQNGSNTLKEGVQNNISLSAGCDIFQRFVTRSLHDVGDFEQCKRHLVENGKLFIQRARACRQRIAHLGYPLIRDGSVILTHGFSRGVAAVLLAAAKRHVRFKVFVTESRPSGSGCLMTRTLKNACIPTCMVLDSAVSFTMNRVDLVLVGAEGVVENGGLINQIGTFQLAVFAKHAHKPFYAVAESHKFVRMFPLSQYDIPFSRPILEFDDPSPETVHPEPEPIPTPSDAIHNELIMNEEQIRNNPTLDVTPPEFVSGLITDLGIIDSKSGVSEELIKLYL
B6: N-terminally His6-fused ε subunit of S. pombe eIF2B (protein, UniProt P56287 1-678)
chain: MPPSKGLNGKLEKPKHALQAIVLSDSYNYRFRPLTLDKPRCLLPLANTPLIEYTFEFLALAGVQEVYVFCCAHAGQIREYIEKSKWNLPSSPFSVNTIVSRESLSVGDALRELDSKQLITSDFILVSGDVVSNVPLNEVLKEHRKRREDDKNAIMTMVVREASPFHRTRARTESSVFVIDKKTSQCVHYQANERGKHYVSMDPEIFNEHEELEVRNDLIDCQIDICSNDVPALFTENFDYQDIRKDFVYGVLTSDLLGKKIHCHVAKENYAARVRSLQTYDAISKDVLSRWVYPFVPDSNLLNQTFSYQRHQIYKEEDVVLARSCIIKARTLIGAYTKVGDASVVANTIIGRNCTIGSNCSIDSAFLWEDVVIGDNCRIGKAILANSVKIGNNCSIEDGAIVAAGVVIGDNTIIEKNKRLTTFESHSQGTLNDPSLVGIGGRGQEYHAEEDSDDEGEFMEASGLIESTNELHLSDSESSETSSSSEEDMEFIPFSARRDSANTINSEDFDEGDFNKEAQQSLERAFEENHQIDIAALELNTLRMAMNANYHEVRSAIVLALLRRIMHLDVSPKEALAKVMTRWGPLLAKLTFSHEEQVDNVLTLQKYCVRLSMTRHFLQLLGYFYQLEIAEENAIQEWYSDPRSSEGELAALRDAGGKQFVDWLNTAESESESEEGSE

Key:
[1] = molecular target: T1, β subunit of S. pombe eIF2B, tags cleaved (S. pombe); experiment: SEC; purified complex after HRV 3C cleavage of the tags; Sephacryl S-300, then Superose 6 with HMW calibration kit, buffer C (20 mM HEPES-KOH pH 7.5, 150 mM KCl, 5 % glycerol, 1 mM DTT), 277 K; SDS-PAGE of the purified complex; both purified
[2] = molecular target: T2, MBP-His6-fused β subunit of S. pombe eIF2B (S. pombe); experiment: pull-down; lysate of E. coli Rosetta2(DE3) co-expressing all five subunits applied to Amylose Resin (MBP tag on the β subunit), eluted with 10 mM maltose, then HiTrap Heparin; 20 mM HEPES-KOH pH 7.5, 150 mM KCl, 277 K; SDS-PAGE (Fig. 2i: wild type and α-subunit mutants)

| Binder | binding [1] | binding [2] |
| --- | --- | --- |
| B1 | binds | – |
| B2 | binds | binds |
| B3 | binds | binds |
| B4 | binds | – |
| B5 | – | binds |
| B6 | – | binds |
